Measurements taken from article PMC9515043.
These are yes or no findings as the source states them, for the method shown. Binding seen in cells or lysates may run through a third protein. Some results given as binding are weak or reduced against the parent protein; the word gives no strength.

Target: epidermal growth factor receptor (EGFR) (human (endogenous in HT-29 and HCT-116)) (UniProt P00533)
Assay: co-IP; lysates of HT-29 and HCT-116 cells (treated with non-siRNA, EGFR inhibitor, p-SPINK1, SPINK1 siRNA, with/without EGFR inhibitor); incubated with anti-EGFR or IgG antibody at 4 °C overnight, beads, elution with 0.2 M glycine-HCl pH 2.5; immunoblot with SPINK1 antibody

B1: Serine protease inhibitor Kazal type 1 (SPINK1) (protein, UniProt P00995 24-79)
chain: DSLGREAKCYNELNGCTKIYDPVCGTDGNTYPNECVLCFENRKRQTSILIQKSGPC
binding: binds
